{"sequences": {"note": "By UniProt entry, the sequences of proteins in these tests, tags left out. Where a name states a change or a piece, a line headed by the entry shows the natural chain unless it says otherwise.", "UniProt Q9HCN6": "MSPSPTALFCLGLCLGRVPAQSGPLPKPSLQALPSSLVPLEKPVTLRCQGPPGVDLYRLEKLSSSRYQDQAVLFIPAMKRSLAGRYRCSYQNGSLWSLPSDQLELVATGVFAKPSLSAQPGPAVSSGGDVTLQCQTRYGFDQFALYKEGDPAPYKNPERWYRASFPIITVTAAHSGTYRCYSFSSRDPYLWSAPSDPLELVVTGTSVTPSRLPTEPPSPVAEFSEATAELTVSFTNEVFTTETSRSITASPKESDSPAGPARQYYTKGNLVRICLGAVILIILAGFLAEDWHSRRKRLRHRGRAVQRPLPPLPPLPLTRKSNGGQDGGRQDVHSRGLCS"}, "source": "paper PMC8622445", "biological_target": "T1, biglycan (BGN), recombinant (human) (UniProt P21810)", "T1 sequence": "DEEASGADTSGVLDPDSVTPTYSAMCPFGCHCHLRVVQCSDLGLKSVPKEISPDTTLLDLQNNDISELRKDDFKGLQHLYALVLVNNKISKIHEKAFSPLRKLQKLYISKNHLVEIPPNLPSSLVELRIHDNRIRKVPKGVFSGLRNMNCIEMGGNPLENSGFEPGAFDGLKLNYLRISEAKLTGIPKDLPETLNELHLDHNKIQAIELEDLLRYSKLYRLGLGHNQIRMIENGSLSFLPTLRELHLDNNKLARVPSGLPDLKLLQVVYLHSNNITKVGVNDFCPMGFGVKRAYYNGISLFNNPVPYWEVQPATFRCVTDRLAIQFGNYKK", "assay": "peptide or protein array; Microarray AVEXIS screening: BGN immobilised (100 ng/uL; the legend says on MaxiSorp plate, the methods say printed slides); blocked with PBS, 1% BSA, 10 mM D-biotin; normalized prey proteins incubated 1 h; detected with anti-Flag HRP antibody and TSA Alexa 555; 22 °C", "note": "No constants are given. Whether binding was seen depends on the method and setting. Binding can be weak; no strength is given.", "data": [{"substance": "pentameric GPVI (glycoprotein VI, collagen receptor) (from UniProt Q9HCN6)", "values": [{"measurement": "binding", "value": "binds"}]}]}
